Measured values reported in paper PMC5359613.
No constants are given. Whether binding was seen depends on the method and setting. Where a sequence is shown, tags or fusion partners need not be part of it.

Biological target: T1, MadB of Phycomyces blakesleeanus (homolog of N. crassa WC-2) (Phycomyces blakesleeanus) (UniProt B5M9P7)
T1 sequence: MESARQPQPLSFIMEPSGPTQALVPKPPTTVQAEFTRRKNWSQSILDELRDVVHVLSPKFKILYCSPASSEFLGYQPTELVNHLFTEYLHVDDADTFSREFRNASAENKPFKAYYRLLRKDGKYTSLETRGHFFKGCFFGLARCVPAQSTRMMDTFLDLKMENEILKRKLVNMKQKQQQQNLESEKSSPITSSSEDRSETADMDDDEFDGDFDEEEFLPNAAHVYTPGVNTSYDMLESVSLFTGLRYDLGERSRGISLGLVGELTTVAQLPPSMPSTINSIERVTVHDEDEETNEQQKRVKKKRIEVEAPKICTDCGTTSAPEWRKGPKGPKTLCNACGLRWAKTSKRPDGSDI
Experiment: two-hybrid; Gal4 activation domain (pGADT7) and DNA binding domain (pGBKT7) fusions co-transformed into S. cerevisiae PJ69-4A; growth on -histidine + 0.5 mM 3-amino triazole or -adenine, and β-galactosidase activity

binding: no binding
B1: MadC protein of Phycomyces blakesleeanus (Ras GTPase activating protein) (protein, UniProt A0A1U9IW06 1-821)
chain: MAGHTHVLSDSHSRTIPSDYLANSTIVSRAMAAAAANNHHNAHAIRRGRQSHRYDVSVFYSMAAEQDIEIEDDLALAQRTLRDFKSNISAQSKKNFMLERDVRFLDSRIALLIQNRMALDEQTEVVSHLEYHDDDTEGHYPDDRKMQQYGSLFFLLQCEPRHMATLCRLVRLSEIDTLLQTVMFTLYGNQYESREEHLLLTMFQNVLAAQFETTSEFASLLRANTPVSRMMTTYTRRGPGQSYLKLVLSDRINRLIEQVDLNLQINPLKVYEELILAAEEGREEDQGLERGISAEGAAAHPQVKATIKPRLALLMETAESFLDTILGSLDKVPYGIRWICKQIRSLTRRKYPDASDSAIASLIGGFFFLRFINPAIVTPQAYMLVDNLPKNHPRAVLTLVAKLLQNLANKPAYAKESYMIPTNSFIEKNKQRINKFLNDLCEVGDFYESLEMDQYMTLSKKDIIINITPNEIYNTLALLQQHIDILAPKPTDHLRVLVSELGTALPQVARQHNKPIELPLFSRWEIPIQDLTMALMSENNITQSDITYMETKAIFVQIIRSLPYLSRPPLQLAQILETANTAKDPLLTRKGLKVTEMLDELERMGVIHRQDGYKLLVEEITQELAHLGDLKDKVVEEMGSLEGVYKTILDHNNYLKIQLESYRAYLQNVRMLSIGNTKEAVHHGHEPALAEKQVGLGVALTTGKTAKKTVKSQHLQGPFKFSHQQLEREGVIAETEVAEHRRCNIFLSVLSPLPGTFIISLHYKGRERPVLEIDLKLDDLLERQQDNVQLLDLEYMKLHVTKTLQLLTKTFMTKNKTGFFS
